Like-named read-outs stand apart in the source and are kept apart here. No constants are given. Whether binding was seen depends on the method and setting. Binding seen in cells or lysates may run through a third protein. Some binding calls cover weakened binding; strength is not graded here. For some assays here: Tags and fused reporters may be left off the sequences shown.
Tests used:
[1] = biological target: WSN (H1N1) PB1 (polymerase basic protein 1 of influenza A virus A/WSN/33) (influenza A virus A/WSN/33 (H1N1)) (UniProt P03430); assay: co-IP
[2] = biological target: T1, HACD3-Myc (human (cDNA from A549 cells)) (UniProt Q9P035); assay: co-IP; HEK293T co-transfected with HACD3-Myc and individual V5-tagged autophagy receptors for 48 h; lysates incubated with mouse anti-Myc mAb and protein G-agarose, 4 °C, 6 h; four washes with 1% NP-40, 50 mmol/L Tris-HCl, 50 mmol/L EDTA, 150 mmol/L NaCl, pH 7.4; blot with anti-V5 and anti-Myc pAb
T1 sequence: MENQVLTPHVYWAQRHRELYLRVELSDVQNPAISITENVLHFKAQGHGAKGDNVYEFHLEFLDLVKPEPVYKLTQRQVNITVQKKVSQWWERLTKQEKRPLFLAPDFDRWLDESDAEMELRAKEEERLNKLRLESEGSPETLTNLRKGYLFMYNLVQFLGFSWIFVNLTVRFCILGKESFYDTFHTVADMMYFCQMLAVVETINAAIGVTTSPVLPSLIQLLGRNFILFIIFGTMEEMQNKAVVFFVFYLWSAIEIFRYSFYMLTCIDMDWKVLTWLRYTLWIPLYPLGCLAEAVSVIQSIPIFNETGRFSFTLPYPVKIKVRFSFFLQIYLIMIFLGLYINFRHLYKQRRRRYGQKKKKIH

Amino acid sequences for entries named in this document (tags omitted).
UniProt P03430: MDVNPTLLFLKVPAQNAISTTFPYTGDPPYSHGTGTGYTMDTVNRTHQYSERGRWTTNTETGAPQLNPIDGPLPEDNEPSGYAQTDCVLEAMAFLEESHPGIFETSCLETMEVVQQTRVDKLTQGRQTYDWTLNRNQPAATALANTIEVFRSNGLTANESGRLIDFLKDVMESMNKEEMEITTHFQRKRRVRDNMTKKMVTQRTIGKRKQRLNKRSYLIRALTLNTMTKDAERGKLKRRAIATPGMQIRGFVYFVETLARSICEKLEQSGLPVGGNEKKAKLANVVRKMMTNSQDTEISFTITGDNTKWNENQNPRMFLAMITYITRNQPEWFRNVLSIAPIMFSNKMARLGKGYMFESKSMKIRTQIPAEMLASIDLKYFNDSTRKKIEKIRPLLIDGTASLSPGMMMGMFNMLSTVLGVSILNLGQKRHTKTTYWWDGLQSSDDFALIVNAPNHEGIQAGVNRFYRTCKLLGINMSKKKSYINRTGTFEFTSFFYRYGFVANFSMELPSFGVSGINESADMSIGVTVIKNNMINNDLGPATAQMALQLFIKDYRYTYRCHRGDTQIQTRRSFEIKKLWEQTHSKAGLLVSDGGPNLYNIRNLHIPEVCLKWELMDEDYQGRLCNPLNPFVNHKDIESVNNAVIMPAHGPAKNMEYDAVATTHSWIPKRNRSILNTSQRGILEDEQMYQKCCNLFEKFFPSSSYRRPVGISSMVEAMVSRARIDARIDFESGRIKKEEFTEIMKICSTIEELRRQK
UniProt Q96CV9: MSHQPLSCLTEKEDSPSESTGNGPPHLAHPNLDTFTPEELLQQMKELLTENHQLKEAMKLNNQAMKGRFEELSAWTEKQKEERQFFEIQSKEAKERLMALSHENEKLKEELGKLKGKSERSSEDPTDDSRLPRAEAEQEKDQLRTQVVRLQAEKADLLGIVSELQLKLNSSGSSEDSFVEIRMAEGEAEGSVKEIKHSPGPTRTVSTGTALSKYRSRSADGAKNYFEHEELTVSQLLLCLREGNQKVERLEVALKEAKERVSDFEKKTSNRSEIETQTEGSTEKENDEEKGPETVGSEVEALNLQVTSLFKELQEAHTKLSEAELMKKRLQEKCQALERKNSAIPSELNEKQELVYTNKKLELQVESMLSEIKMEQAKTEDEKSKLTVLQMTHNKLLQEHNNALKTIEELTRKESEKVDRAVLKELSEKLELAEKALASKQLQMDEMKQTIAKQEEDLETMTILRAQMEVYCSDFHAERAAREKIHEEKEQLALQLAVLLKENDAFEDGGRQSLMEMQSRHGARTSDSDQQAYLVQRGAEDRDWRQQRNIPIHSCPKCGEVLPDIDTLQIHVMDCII

[3] = biological target: T1, HACD3-Myc (human (cDNA from A549 cells)); assay: as above; remark: listed apart in the source
[4] = biological target: WSN (H1N1) PB1 (polymerase basic protein 1 of influenza A virus A/WSN/33) (influenza A virus A/WSN/33 (H1N1)) (UniProt P03430); assay: co-IP; remark: listed apart in the source

Molecule: V5-tagged SQSTM1/p62 (from UniProt Q13501 1-440)
- binding [1]: binds
- binding [2]: binds

Molecule: V5-tagged OPTN (from UniProt Q96CV9 1-577)
- binding [2]: no binding

B1: V5-tagged NDP52 (protein, UniProt Q13137 1-446)
chain: MEETIKDPPTSAVLLDHCHFSQVIFNSVEKFYIPGGDVTCHYTFTQHFIPRRKDWIGIFRVGWKTTREYYTFMWVTLPIDLNNKSAKQQEVQFKAYYLPKDDEYYQFCYVDEDGVVRGASIPFQFRPENEEDILVVTTQGEVEEIEQHNKELCKENQELKDSCISLQKQNSDMQAELQKKQEELETLQSINKKLELKVKEQKDYWETELLQLKEQNQKMSSENEKMGIRVDQLQAQLSTQEKEMEKLVQGDQDKTEQLEQLKKENDHLFLSLTEQRKDQKKLEQTVEQMKQNETTAMKKQQELMDENFDLSKRLSENEIICNALQRQKERLEGENDLLKRENSRLLSYMGLDFNSLPYQVPTSDEGGARQNPGLAYGNPYSGIQESSSPSPLSIKKCPICKADDICDHTLEQQQMQPLCFNCPICDKIFPATEKQIFEDHVFCHSL
- binding [3]: binds weakly

B2: V5-tagged HACD3 (Hydroxyacyl-CoA Dehydratase 3) (protein, UniProt Q9P035 1-362)
chain: MENQVLTPHVYWAQRHRELYLRVELSDVQNPAISITENVLHFKAQGHGAKGDNVYEFHLEFLDLVKPEPVYKLTQRQVNITVQKKVSQWWERLTKQEKRPLFLAPDFDRWLDESDAEMELRAKEEERLNKLRLESEGSPETLTNLRKGYLFMYNLVQFLGFSWIFVNLTVRFCILGKESFYDTFHTVADMMYFCQMLAVVETINAAIGVTTSPVLPSLIQLLGRNFILFIIFGTMEEMQNKAVVFFVFYLWSAIEIFRYSFYMLTCIDMDWKVLTWLRYTLWIPLYPLGCLAEAVSVIQSIPIFNETGRFSFTLPYPVKIKVRFSFFLQIYLIMIFLGLYINFRHLYKQRRRRYGQKKKKIH
- binding [4]: binds

— paper PMC11126133
